Data published in US10584157B2 (priority 2015, dated 2020).
pKd: −log10 of the molar value. For at least one compound, name, drawing or mass did not settle the structure. Peptide text beside a SMILES is read from it.

Chains of the proteins cited; added tags and fusions are not shown. Residues count along the entry.
UniProt P01552, 28-266 limits assumed: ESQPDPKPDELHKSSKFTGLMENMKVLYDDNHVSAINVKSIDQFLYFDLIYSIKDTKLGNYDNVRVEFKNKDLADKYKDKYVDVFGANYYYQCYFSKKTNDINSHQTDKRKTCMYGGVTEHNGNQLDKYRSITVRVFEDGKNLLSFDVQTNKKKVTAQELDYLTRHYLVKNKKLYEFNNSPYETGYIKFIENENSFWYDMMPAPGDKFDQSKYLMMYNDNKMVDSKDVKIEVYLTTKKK
UniProt P06886, 41-234 limits assumed: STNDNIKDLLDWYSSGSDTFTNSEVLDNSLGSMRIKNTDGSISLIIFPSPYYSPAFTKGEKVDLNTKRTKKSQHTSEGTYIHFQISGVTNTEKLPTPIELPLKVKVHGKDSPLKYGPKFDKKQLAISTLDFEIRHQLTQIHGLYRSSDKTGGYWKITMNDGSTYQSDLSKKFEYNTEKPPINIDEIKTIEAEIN

What was measured:
SEB = SEB (Staphylococcus aureus, UniProt P01552); assay type: binding, S. aureus
TSST-1 = TSST-1 (Staphylococcus aureus, UniProt P06886); assay type: binding, S. aureus

Row | SMILES | pKd (SEB) | pKd (TSST-1)
1 | CSCC[C@H](NC(=O)[C@H](Cc1ccc(O)cc1)NC(=O)[C@H](CCCCN)NC(=O)[C@H](CO)NC(=O)[C@H](Cc1c[nH]cn1)NC(=O)[C@@H](NC(=O)[C@H](CO)NC(=O)[C@H](CC(=O)O)NC(=O)[C@H](Cc1ccccc1)NC(=O)[C@H](CCCCN)NC(=O)[C@@H](N)CCC(=O)O)C(C)C)C(=O)O [pB2-4] (H-EKFDSVHSKYM-OH; N-terminus and C-terminus assumed) | 5.63 | 5.01
2 | CC(C)C[C@H](NC(=O)[C@@H](NC(=O)[C@H](Cc1c[nH]c2ccccc12)NC(=O)[C@H](CO)NC(=O)[C@H](CC(=O)O)NC(=O)[C@H](CO)NC(=O)[C@@H](N)CC(=O)O)[C@@H](C)O)C(=O)N[C@@H](CCCNC(=N)N)C(=O)O [pB2-6] (H-DSDSWTLR-OH; N-terminus and C-terminus assumed) | 5.41 | 5.92
